Results deposited as PubChem BioAssay AID686938 (Drosophila RNAi Screening Center, 2013)
In all, the deposit lists about 23,000 reagents; below is a random part of those that have a named target and a result. Of all reagents, 75 (0.33%) were called active. 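Raw plate signals without normalisation; calls rest on plate z-scores that were not deposited; ratio present for only 364 wells.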 Entries without a mark were called inactive. Names joined by + are all predicted targets of the reagent. Reagent sequences are not shown. The record does not give: the dose of the treatment.

- Assay: 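Looking for CRAC channel components and the factors controlling them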 (primary screen)
- Cell system: Drosophila S2R+ cells
- Reagent: long dsRNA against Drosophila genes, about 0.25 µg dsRNA per well, roughly 10,000 cells
- Time to read-out: 5 days of knock-down before the calcium assay
- Treatment: thapsigargin (SERCA pump blocker) to empty calcium stores; entry signal taken 4 min after adding it
- Measured: 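Duplicate raw fluo-4 intensities per well from a plate reader, at rest and four minutes after thapsigargin emptied calcium stores; entry-to-rest ratio filled for only some wells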
- Reading the numbers: calcium entry signal: higher = stronger calcium signal after store depletion; entry to resting ratio: higher = more calcium entry relative to resting level; resting calcium signal: higher = higher resting calcium signal
- Units: calcium entry signal in fluorescence units; resting calcium signal in fluorescence units
- Call rule: 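Hit if the duplicate-averaged plate z-score for entry over resting signal is under −3; wells with weak total dye signal (Fmax z < −2) or more than 5 off-targets removed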
- Meaning of the calls: active = strongly reduced calcium entry; inactive = no strong reduction

For CG4660 (GeneID 31542) [DRSC18378], the values are calcium entry signal, replicate 1 = 3.21e7; calcium entry signal, replicate 2 = 4.38e7; resting calcium signal, replicate 1 = 1.58e7; resting calcium signal, replicate 2 = 1.92e7.
With knock-down of Pih1D1 (GeneID 34685) [DRSC02897] the results were calcium entry signal, replicate 1 = 4.58e7; resting calcium signal, replicate 1 = 2.41e7.
For enc (GeneID 44543) [DRSC08716] the deposit lists calcium entry signal, replicate 1 = 3.65e7; calcium entry signal, replicate 2 = 4.17e7; resting calcium signal, replicate 1 = 1.90e7; resting calcium signal, replicate 2 = 1.93e7.
Depletion of Taf5 (GeneID 47900) [DRSC07562] came out at: calcium entry signal, replicate 1 = 3.40e7; calcium entry signal, replicate 2 = 2.74e7; resting calcium signal, replicate 1 = 1.63e7; resting calcium signal, replicate 2 = 1.43e7.
With knock-down of Ilp6 (GeneID 31220) [DRSC17906], the record shows calcium entry signal, replicate 1 = 4.48e7; calcium entry signal, replicate 2 = 4.10e7; entry to resting ratio 2.1; resting calcium signal, replicate 1 = 2.14e7; resting calcium signal, replicate 2 = 1.78e7.
Knock-down of CG10919 (GeneID 40917) [DRSC14283] gave: calcium entry signal, replicate 1 = 4.19e7; calcium entry signal, replicate 2 = 2.69e7; resting calcium signal, replicate 1 = 2.09e7; resting calcium signal, replicate 2 = 1.41e7.
Silencing of Sym (GeneID 40709) [DRSC12301] resulted in: calcium entry signal, replicate 1 = 2.21e7; calcium entry signal, replicate 2 = 2.46e7; resting calcium signal, replicate 1 = 1.16e7; resting calcium signal, replicate 2 = 1.33e7.
For grim (GeneID 40014) [DRSC11352] the deposit lists calcium entry signal, replicate 1 = 3.45e7; calcium entry signal, replicate 2 = 6.18e7; resting calcium signal, replicate 1 = 2.05e7; resting calcium signal, replicate 2 = 2.97e7.
For grim (GeneID 40014) [DRSC23169], the entry reads calcium entry signal, replicate 1 = 2.76e7; calcium entry signal, replicate 2 = 3.17e7; resting calcium signal, replicate 1 = 1.37e7; resting calcium signal, replicate 2 = 1.39e7.

A stretch of the results above, for reference:
Pih1D1 (GeneID 34685) [DRSC02897]: calcium entry signal, replicate 1 = 4.58e7; resting calcium signal, replicate 1 = 2.41e7
enc (GeneID 44543) [DRSC08716]: calcium entry signal, replicate 1 = 3.65e7; calcium entry signal, replicate 2 = 4.17e7; resting calcium signal, replicate 1 = 1.90e7; resting calcium signal, replicate 2 = 1.93e7

More records:
Silencing of RPA3 (GeneID 32113) [DRSC19658] resulted in: calcium entry signal, replicate 1 = 3.33e7; calcium entry signal, replicate 2 = 3.56e7; resting calcium signal, replicate 1 = 1.97e7; resting calcium signal, replicate 2 = 2.29e7.
Ekar (GeneID 43806) [DRSC17161] showed calcium entry signal, replicate 1 = 5.48e7; calcium entry signal, replicate 2 = 6.03e7; entry to resting ratio 2.3; resting calcium signal, replicate 1 = 2.41e7; resting calcium signal, replicate 2 = 2.57e7.
Cpr65Ax2 + Cpr65Ax1 [DRSC10341] gave calcium entry signal, replicate 1 = 2.84e7; calcium entry signal, replicate 2 = 4.62e7; resting calcium signal, replicate 1 = 1.35e7; resting calcium signal, replicate 2 = 1.92e7.
Against Cpr65Ax2 + Cpr65Ax1 [DRSC10344] the deposit lists calcium entry signal, replicate 1 = 2.79e7; calcium entry signal, replicate 2 = 4.32e7; resting calcium signal, replicate 1 = 1.46e7; resting calcium signal, replicate 2 = 1.76e7.
With knock-down of Ctr1C (GeneID 43668) [DRSC15089] the results were calcium entry signal, replicate 1 = 3.70e7; calcium entry signal, replicate 2 = 6.37e7; resting calcium signal, replicate 1 = 2.00e7; resting calcium signal, replicate 2 = 2.84e7.
Knock-down of CG10839 (GeneID 34944) [DRSC01965] gave: calcium entry signal, replicate 1 = 4.06e7; calcium entry signal, replicate 2 = 3.95e7; resting calcium signal, replicate 1 = 1.80e7; resting calcium signal, replicate 2 = 1.84e7.
PGRP-LE (GeneID 32534) [DRSC20137] scored calcium entry signal, replicate 1 = 4.31e7; calcium entry signal, replicate 2 = 4.30e7; resting calcium signal, replicate 1 = 1.74e7; resting calcium signal, replicate 2 = 2.01e7.
With knock-down of CG2961 (GeneID 31954) [DRSC18246], the screen gave calcium entry signal, replicate 1 = 4.05e7; calcium entry signal, replicate 2 = 3.85e7; resting calcium signal, replicate 1 = 1.95e7; resting calcium signal, replicate 2 = 1.93e7.
Knock-down of CG9590 (GeneID 41907) [DRSC16506] came out at: calcium entry signal, replicate 1 = 3.25e7; calcium entry signal, replicate 2 = 2.27e7; resting calcium signal, replicate 1 = 1.51e7; resting calcium signal, replicate 2 = 9.95e6.
After knock-down of HPS4 (GeneID 37009) [DRSC06906], the screen gave calcium entry signal, replicate 1 = 3.87e7; calcium entry signal, replicate 2 = 5.28e7; resting calcium signal, replicate 1 = 1.69e7; resting calcium signal, replicate 2 = 2.40e7.
After knock-down of hale (GeneID 40183) [DRSC10882] the results were calcium entry signal, replicate 1 = 3.19e7; calcium entry signal, replicate 2 = 5.79e7; resting calcium signal, replicate 1 = 1.55e7; resting calcium signal, replicate 2 = 2.10e7.
Against rtet (GeneID 42500) [DRSC14160] the deposit lists calcium entry signal, replicate 1 = 4.07e7; calcium entry signal, replicate 2 = 4.11e7; resting calcium signal, replicate 1 = 1.82e7; resting calcium signal, replicate 2 = 1.75e7.
